No constants are given. Whether binding was seen depends on the method and setting.

Common to all, as to assay: Ligand Surface Binding Assay
Common to all, as to conditions: remark: other sources report otherwise

In assay [1] the target is T1, BMPR2-Halo (human), Q13873.
T1 chain: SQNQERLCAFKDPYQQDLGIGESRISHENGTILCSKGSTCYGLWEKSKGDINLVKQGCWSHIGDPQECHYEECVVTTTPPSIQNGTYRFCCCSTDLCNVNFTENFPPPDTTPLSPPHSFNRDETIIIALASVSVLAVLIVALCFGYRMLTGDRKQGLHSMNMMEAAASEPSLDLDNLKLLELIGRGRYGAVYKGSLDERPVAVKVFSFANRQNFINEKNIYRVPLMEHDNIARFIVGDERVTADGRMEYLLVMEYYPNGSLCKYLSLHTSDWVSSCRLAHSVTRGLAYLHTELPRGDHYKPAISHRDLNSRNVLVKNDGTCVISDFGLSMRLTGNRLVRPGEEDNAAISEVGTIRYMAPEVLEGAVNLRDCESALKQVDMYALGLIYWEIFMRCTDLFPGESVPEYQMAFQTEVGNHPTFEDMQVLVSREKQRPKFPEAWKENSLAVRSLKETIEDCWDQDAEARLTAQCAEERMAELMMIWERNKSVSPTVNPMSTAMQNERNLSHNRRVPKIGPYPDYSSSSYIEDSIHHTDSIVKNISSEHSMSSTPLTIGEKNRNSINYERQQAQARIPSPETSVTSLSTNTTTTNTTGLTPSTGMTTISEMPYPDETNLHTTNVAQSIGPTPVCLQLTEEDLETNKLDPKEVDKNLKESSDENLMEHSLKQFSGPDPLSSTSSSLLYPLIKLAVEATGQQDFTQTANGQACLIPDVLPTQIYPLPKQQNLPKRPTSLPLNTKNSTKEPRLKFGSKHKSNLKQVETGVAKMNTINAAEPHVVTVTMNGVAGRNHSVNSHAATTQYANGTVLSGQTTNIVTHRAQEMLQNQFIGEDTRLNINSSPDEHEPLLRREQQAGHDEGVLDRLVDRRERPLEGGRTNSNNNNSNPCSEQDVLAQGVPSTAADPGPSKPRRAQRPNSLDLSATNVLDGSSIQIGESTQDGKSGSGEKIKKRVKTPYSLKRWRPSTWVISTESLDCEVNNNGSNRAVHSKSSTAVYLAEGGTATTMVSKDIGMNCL

The target in assay [2] is T2, ALK2-Halo (human), Q04771.
T2 chain: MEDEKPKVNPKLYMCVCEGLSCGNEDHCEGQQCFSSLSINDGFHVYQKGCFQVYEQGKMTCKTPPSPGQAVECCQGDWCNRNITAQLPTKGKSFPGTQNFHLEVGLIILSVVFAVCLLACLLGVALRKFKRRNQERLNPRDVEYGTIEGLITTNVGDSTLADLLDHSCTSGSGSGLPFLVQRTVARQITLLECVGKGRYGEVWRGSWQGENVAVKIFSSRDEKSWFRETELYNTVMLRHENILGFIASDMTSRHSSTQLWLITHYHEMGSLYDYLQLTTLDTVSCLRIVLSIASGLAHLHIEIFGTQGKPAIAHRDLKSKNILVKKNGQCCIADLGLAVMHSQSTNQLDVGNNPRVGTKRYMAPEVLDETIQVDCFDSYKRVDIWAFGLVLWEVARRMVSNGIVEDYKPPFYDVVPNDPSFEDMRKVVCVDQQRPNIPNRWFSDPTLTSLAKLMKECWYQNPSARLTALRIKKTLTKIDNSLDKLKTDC

For assay [3], the target named is T3, ALK5-Halo (human), P36897.
T3 chain: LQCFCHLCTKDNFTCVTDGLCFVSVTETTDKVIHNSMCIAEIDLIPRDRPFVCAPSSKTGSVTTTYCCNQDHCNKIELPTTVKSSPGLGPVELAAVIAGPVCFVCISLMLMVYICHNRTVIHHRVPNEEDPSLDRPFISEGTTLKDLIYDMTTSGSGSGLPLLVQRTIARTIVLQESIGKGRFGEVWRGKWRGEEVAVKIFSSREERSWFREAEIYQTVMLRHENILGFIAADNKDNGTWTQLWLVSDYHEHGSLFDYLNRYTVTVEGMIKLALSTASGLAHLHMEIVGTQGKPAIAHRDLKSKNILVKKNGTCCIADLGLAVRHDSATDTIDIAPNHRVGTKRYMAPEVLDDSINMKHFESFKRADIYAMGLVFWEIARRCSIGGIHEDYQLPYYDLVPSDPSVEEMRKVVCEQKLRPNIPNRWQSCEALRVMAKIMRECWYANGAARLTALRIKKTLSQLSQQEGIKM

B1: BMP9-SiR-d12, Q9UK05 320-429 (ligand)
chain: SAGAGSHCQKTSLRVNFEDIGWDSWIIAPKEYEAYECKGGCFFPLADDVTPTKHAIVQTLVHLKFPTKVGKACCVPTKLSPISVLYKDDMGVPTLKYHYEGMSVAECGCR
modifications: here or on the partner: SiR-d12 label (NHS-SiR-d12 ester, 5-fold molar excess)
Regarding B1, the binding entry in assay [1] was “no binding (tested: 0.3 nM)”.

B2: Activin A-Cy5, P08476 311-426 (ligand)
chain: GLECDGKVNICCKKQFFVSFKDIGWNDWIIAPSGYHANYCEGECPSHIAGTSGSSLSFHSTVINHYRMRGHSPFANLKSCCVPTKLRPMSMLYYDDGQNIIKKDIQNMIVEECGCS
modifications: here or on the partner: Cy5 label (NHS-activated Cy5, protein:dye ratio 1:2 in the labelling reaction)
Turning to B2, the binding entry in assay [2] and in assay [3] was “no binding (tested: 2 nM)” each time.

Values taken from publication doi:10.1101/2022.03.04.482944.
